Values of other authors in publication PMC5026937 (Antiviral research, 2016).

Key:
[1] = ref Jeffery, 1991; cited from earlier work
[2] = system: phosphatase activity of calcineurin; conditions: ref Jeffery, 1991; cited from earlier work

SMILES: C/C=C/C[C@@H](C)[C@@H](O)[C@H]1C(=O)N[C@@H](CC)C(=O)N(C)CC(=O)N(C)[C@@H](CC(C)C)C(=O)N[C@@H](C(C)C)C(=O)N(C)[C@@H](CC(C)C)C(=O)N[C@@H](C)C(=O)N[C@H](C)C(=O)N(C)[C@@H](CC(C)C)C(=O)N(C)[C@@H](CC(C)C)C(=O)N(C)[C@H](C(C)C)C(=O)N1C [CsH (5), Cyclosporine H]
- immunosuppressant activity [1]: no immunosuppressant activity
- inhibition of the phosphatase activity of calcineurin [2]: does not inhibit the phosphatase activity of calcineurin
